Experimental data published in PubChem BioAssay AID2685 (National Center for Advancing Translational Sciences (NCATS), 2010).
The other results are listed elsewhere or left out. The main result of the screen is listed elsewhere. These columns were measured beside it and carry no call. Compounds called inactive in the main read-out are mostly missing here. Words in brackets tell the shape of the fitted curve; partial curves, single points and poor fits give uncertain potencies.

Assay: qHTS Assay for Lipid Storage Modulators in Drosophila S3 Cells;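 as to cell number change: cells counted by Cell Tracker Red CMTPX staining in the red channel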
Settings: BODIPY lipid droplet fluorescence, 18-24 h; for cell number change: measured here: cell count max response, cells fed with added oleic acid
Outline: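 Laser-scanning cytometry quantifies lipid droplet accumulation (500–530 nm total intensity; droplet/cell object ratio) in oleic acid-fed (400 uM added) Drosophila S3 cells treated with a concentration series. 20 uM Triacsin C defined 100% inhibition.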

[1] = measured here: cell number channel AC50, cells fed with added oleic acid
[2] = measured here: lipid fluorescence (Fed channel) AC50, cells fed with added oleic acid

SMILES | cell number change [%] | AC50 [1] | AC50 [2]
Cc1cccc(N2CCN(C(c3ccncc3)c3nnnn3C(C)(C)C)CC2)c1C (centres undefined) | 38.2 | 5.17 µM [rising, partial curve] | 29.1 µM [rising, single point]
COc1cc2[nH]c(C(=O)NCc3ccccc3)cc2c(OC)c1OC | 55.6 | 11.6 µM [rising, partial curve] | 
CCC(N=c1cc(-c2ccc(OC)c(OC)c2)oc2ccc(C)cc12)C(=O)O (centres undefined) | 5.19 |  | 29.1 µM [falling, single point]
COC(=O)c1ccc(NC(=O)c2ccccc2)o1 | -39.8 | 18.4 µM [falling, single point] | 16.4 µM [falling, single point]
COc1ccc(/C=C/C(=O)NCC(=O)N/N=C(/C)c2ccc(Cl)cc2)cc1 | 24.8 |  | 2.31 µM [rising, full curve, poor fit]
CN1CCN(C(=O)c2ccc3c(c2)NC(=O)/C(=C/c2ccccc2)S3)CC1 | -15.3 |  | 
Cc1ccc(C)c(S(=O)(=O)N2CCN(C(=O)CCc3c[nH]c4ccccc34)CC2)c1 | -6.61 | 1.84 µM [rising, partial curve, poor fit] | 3.26 µM [rising, single point]
COc1cc(/C=N/Nc2nn3cnnc3c3ccccc23)ccc1O | -16.6 |  | 29.1 µM [falling, single point]
O=C1C=C(c2ccc(F)cc2OCc2ccccc2)C[C@@H](c2ccc(Cl)cc2)C1 | 19.2 |  | 
CCOC(=O)C1CCN(C(=O)COc2ccc(Cl)cc2Cl)CC1 | 0.338 |  | 0.291 µM [rising, full curve]
CCOC(=O)N1CCC(NC(=O)C(CC(C)C)NC(=O)C2CCCCC2)CC1 (centres undefined) | 0.674 |  | 7.31 µM [falling, single point]
Cc1ccc(C)c(S(=O)(=O)NCC(c2ccco2)N2CCc3ccccc3C2)c1 (centres undefined) | 1.99 |  | 0.58 µM [falling, full curve]
CC(=O)c1cccc(NC(=O)Nc2ccc3c(c2)CCC3)c1 | 32.4 |  | 
COc1cc(C(=O)O)nc2ccc([N+](=O)[O-])cc12 | 5.08 |  | 0.0651 µM [rising, single point]
O=C(NCSC1=NCCS1)c1ccccc1 | 1.55 |  | 29.1 µM [rising, single point]
Cc1c(NC(=O)c2ccc(N3C(=O)C4C5C=CC(C5)C4C3=O)cc2)c(=O)n(-c2ccccc2)n1C (centres undefined) | 5.71 |  | 0.731 µM [falling, single point]
COc1ccccc1OCCOc1ccc(/C=C2\C(=N)N3N=C(S(C)(=O)=O)SC3=NC2=O)cc1 | -8.7 |  | 0.651 µM [rising, single point]
CCCn1c2ccccc2c2cnn(CC(=O)O)c(=O)c21 | 17.1 |  | 
CCOc1ccc(N(CC(=O)NCCc2ccccc2)S(=O)(=O)c2ccccc2)cc1 | 1.9 |  | 29.1 µM [rising, partial curve, poor fit]
O=C(NCCCn1ccnc1)c1ccc(Br)s1 | 29.7 | 3.66 µM [rising, full curve, poor fit] | 

A draw from above in order of number of heavy atoms, smallest number first.
SMILES | cell number change [%] | AC50 [1] | AC50 [2]
COC(=O)c1ccc(NC(=O)c2ccccc2)o1 | -39.8 | 18.4 µM [falling, single point] | 16.4 µM [falling, single point]
CCCn1c2ccccc2c2cnn(CC(=O)O)c(=O)c21 | 17.1 |  | 
COc1cc2[nH]c(C(=O)NCc3ccccc3)cc2c(OC)c1OC | 55.6 | 11.6 µM [rising, partial curve] | 

Further records follow:

SMILES | cell number change [%] | AC50 [1] | AC50 [2]
COc1ccc(C2=NS(=O)(=O)N(C)C(C(=O)N(C)Cc3ccccc3)=C2)cc1OC | 2.02 |  | 32.6 µM [falling, single point]
COc1ccc(-n2c(SCC(=O)NCc3ccco3)nnc2-c2c[nH]c3ccccc23)cc1 |  | 0.92 µM [rising, partial curve] | 
Cn1c(N)c(C(=O)CSc2nnc(C3CC3)n2Cc2ccccc2)c(=O)[nH]c1=O | 15.9 |  | 
O=S(=O)(N1CCCCC1)N1CCN(CC(O)COc2ccc3cc(Br)ccc3c2)CC1 (centres undefined) | -76.6 | 23.1 µM [falling, single point] | 
COc1ccc(N(C(=O)c2ccccc2C)S(=O)(=O)c2cccs2)cc1 | -23.3 |  | 3.26 µM [falling, full curve]
COc1ccc(C(=O)C2CCN(C(=O)c3ccc(C)cc3)CC2)cc1 | -21.2 |  | 29.1 µM [falling, single point]
COC(CNS(=O)(=O)c1ccc(S(=O)(=O)N2CCCC2)cc1)OC | 30.9 | 4.11 µM [rising, partial curve] | 
COc1ccccc1NC(C)C(=O)Nc1ccc(C(C)=O)cc1 (centres undefined) | 16.5 | 6.51 µM [rising, single point] | 2.91 µM [falling, full curve, poor fit]
CCOC(=O)Cn1nc(NC(=O)c2ccc3c(c2)OCO3)cc1C | 20 |  | 29.1 µM [falling, single point]
Cc1[nH]n(-c2ccccc2)c(=O)c1C=Nc1ccc(S(=O)(=O)N=C(N)N)cc1 | 39.3 | 29.1 µM [rising, single point] | 29.1 µM [rising, single point]
CC(C)C(C(=O)NCc1ccco1)N(C(=O)CNS(=O)(=O)c1ccccc1)c1ccccc1 (centres undefined) | -19 |  | 1.84 µM [falling, single point]
COc1ccc(CNC(=O)CCCn2nc(C)c3c(C)n(-c4ccc(C)cc4)nc3c2=O)cc1 | 2.99 |  | 29.1 µM [falling, single point]
CCCCNC(=O)COC(=O)c1cc(S(=O)(=O)N2CCCCCC2)ccc1OC |  | 3.66 µM [rising, single point] | 
CCn1nc(NC(=O)c2ccco2)c2cc3ccc(C)cc3nc21 | 16 | 0.411 µM [rising, partial curve] | 2.59 µM [rising, partial curve]
CCN(C(=O)c1ccc(NC(=O)c2ccco2)cc1)c1ccccc1 | 2.89 |  | 16.4 µM [rising, partial curve, poor fit]
O=C(Nc1ccc([N+](=O)[O-])cc1)N1CCCCCC1 | 12.6 |  | 5.62 µM [falling, single point]
COc1ccc(-c2nnc(SCC(=O)NC(=O)NCc3ccco3)o2)cc1 |  |  | 1.64 µM [falling, partial curve]
Cc1ccc(C)c(NC(=O)c2ccc(OCc3c(C)noc3C)cc2)c1 | -46.6 |  | 
CC(=O)C(=Cc1cn(-c2ccccc2)nc1-c1ccccc1)C(C)=O | 38.9 | 5.8 µM [rising, full curve] | 5.8 µM [rising, single point]
COc1ccc(OC)c(S(=O)(=O)N2CCC(C(=O)NCc3ccccc3OC)CC2)c1 |  | 6.51 µM [rising, single point] | 

SMILES | cell number change [%] | AC50 [1] | AC50 [2]
Clc1ccc(OCc2nnnn2-c2ccccc2)cc1 | -15.8 |  | 
C/C=C\C(=O)Nc1cccc(C2=NOC3(C2)C[C@@H](C(N)=O)N(C(=O)C2(C)CC2)C3)c1 (some centres undefined) | 27.2 |  | 14.6 µM [rising, partial curve, poor fit]
Cc1ccccc1C(=O)c1c[nH]c(C(=O)NCCc2ccccn2)c1 | 42.6 |  | 
O=C(Cn1cnc2cc([N+](=O)[O-])ccc2c1=O)NC1CCS(=O)(=O)C1 (centres undefined) | -7.06 |  | 0.651 µM [falling, partial curve, poor fit]
Cc1c(C(=O)O)sc(S(=O)(=O)N2CCN(C(=O)Cc3ccc(F)cc3)CC2)c1C(=O)O | -12.1 |  | 6.51 µM [rising, single point]
Cc1cc(S(=O)(=O)N2CCN(c3ccccc3O)CC2)c(C)s1 | 23.8 | 0.517 µM [rising, single point] | 0.259 µM [falling, full curve]
O=C(NCCCN1CCCC1)c1ccc2c(c1)N(Cc1ccccc1F)C(=O)c1ccccc1S2=O (centres undefined) | 5.5 |  | 
CCOc1cc(C2C(C(=O)c3ccco3)=C(O)C(=O)N2CCc2ccccc2)ccc1O (centres undefined) | 16.1 |  | 
COc1ccc(C(=O)NCC(=O)OCC(=O)N2N=C(c3ccc(Cl)cc3)CC2c2ccco2)cc1OC (centres undefined) |  | 0.82 µM [rising, partial curve, poor fit] | 
O=C1C2C3C=CC(C3)C2C(=O)N1CNc1ccccc1 (centres undefined) | -4.14 |  | 0.116 µM [falling, full curve, poor fit]
CCOc1ccc(/C=N/NC(=O)C(OC)c2ccccc2)cc1 (centres undefined) | -4.19 |  | 1.16 µM [rising, single point]
Cc1nc(C)c(CC(=O)N/N=C/c2ccc(O)cc2)c(=O)[nH]1 | -1.18 |  | 29.1 µM [falling, single point]
Cc1ccc2[nH]cc(/C=C/c3cc[n+](C)cc3)c2c1 | 16.5 |  | 18.4 µM [falling, single point]
CC(OC(=O)c1cccc(O)c1)C(=O)N(C)Cc1ccccc1 (centres undefined) | 0.602 |  | 23.1 µM [falling, single point]
O=C(Nc1ccc2c(c1)OCCO2)c1ccoc1 | 20.8 | 0.517 µM [rising, full curve, poor fit] | 
CS(=O)(=O)Nc1cccc(-c2cnc3ccccc3n2)c1 | -10 |  | 1.03 µM [rising, partial curve]
Cn1nc(C(F)(F)F)c(-c2ccc(F)cc2)c1NC(=O)c1cccnc1 | -8.97 |  | 3.26 µM [rising, partial curve, poor fit]
O=C(CCC1CCCCC1)NC1=NCCS1 | -1.96 |  | 16.4 µM [rising, single point]
Cc1ccc(C(=O)N/C(=C\c2ccc(Br)cc2)c2nc(=S)[nH][nH]2)cc1 | -35.3 | 14.6 µM [falling, single point] | 29.1 µM [falling, single point]
COc1cccc(/C=N/n2c(COc3ccccc3)n[nH]c2=S)c1 | -41.9 | 29.1 µM [falling, single point] | 
